# The supplement of paper PMC4635364
# Structures can show the parent of a compound that is named as a salt. The list shows a part of the results. Repeats in this data set agree poorly, so a single value says little.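 Cells: ReNCell VM human fetal ventral-midbrain neural progenitors, differentiated mitogen-free. Blinded raters compared doublecortin-stained (early neurons) or tyrosine hydroxylase-stained (dopaminergic neurons) images with untreated wells, where 0 means no change. After repeats and both raters were averaged, compounds scoring 2 or above became hits for retesting.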
# Tests used:
# ReNCell VM [1] = assay: neuronal differentiation score (DCX+ cell fraction vs untreated, manual image score) (score (-3 to 3)); higher = more neuronal differentiation; details: 2 uM, 2 weeks
# ReNCell VM [2] = assay: dopaminergic neuron differentiation score (TH+ cell fraction vs untreated, manual image score) (score (0 to 3)); higher = more TH+ dopaminergic neuron differentiation; details: 2 uM, 4 weeks, BDNF 10 ng/ml + GDNF 10 ng/ml
compound,measurement,setting,value
CC(C)(C)[N+]([O-])=Cc1ccc(S(=O)(=O)O)cc1S(=O)(=O)O,neuronal differentiation score,ReNCell VM [1]; library: Tocriscreen,inactive: 0
same,dopaminergic neuron differentiation score,ReNCell VM [2]; library: Tocriscreen,inactive: 0
CCCCCCCC/C=C\CCCCCCCC(=O)NCCO [N-Oleoylethanolamine],neuronal differentiation score,ReNCell VM [1]; library: LOPAC,inactive: 0
same,dopaminergic neuron differentiation score,ReNCell VM [2]; library: LOPAC,inactive: 0
CC(C)/N=c1\cc2n(-c3ccc(Cl)cc3)c3ccccc3nc-2cc1Nc1ccc(Cl)cc1,neuronal differentiation score,ReNCell VM [1]; library: Spectrum,inactive: 0
same,dopaminergic neuron differentiation score,ReNCell VM [2]; library: Spectrum,inactive: 0
C[N+]1(CCCCC[N+]2(C)CCCC2)CCCC1 [Pentolinium di[L(+)-tartrate]],neuronal differentiation score,ReNCell VM [1]; library: LOPAC,inactive: 0
same,dopaminergic neuron differentiation score,ReNCell VM [2]; library: LOPAC,inactive: 0
CC(C1=C(CCN(C)C)Cc2ccccc21)c1ccccn1 (stereo in doubt) [(S)-(+)-Dimethindene maleate],neuronal differentiation score,ReNCell VM [1]; library: Tocriscreen,inactive: 0
same,dopaminergic neuron differentiation score,ReNCell VM [2]; library: Tocriscreen,inactive: 0
Clc1ccc(C(Cn2ccnc2)OCc2c(Cl)cccc2Cl)c(Cl)c1 (stereo not given) [Isoconazole],neuronal differentiation score,ReNCell VM [1]; library: Prestwick,inactive: 0
same,dopaminergic neuron differentiation score,ReNCell VM [2]; library: Prestwick,inactive: 0
CC(=O)c1ccc2c(c1)N(CCCN1CCC(CCO)CC1)c1ccccc1S2,neuronal differentiation score,ReNCell VM [1]; library: Spectrum,inactive: 1
same,dopaminergic neuron differentiation score,ReNCell VM [2]; library: Spectrum,inactive: 0
COc1ccc(CCn2nnnc2C2(c3ccc(C)cc3)CC2)cc1 [Mephetyl tetrazole],neuronal differentiation score,ReNCell VM [1]; library: LOPAC,inactive: 0
same,dopaminergic neuron differentiation score,ReNCell VM [2]; library: LOPAC,inactive: 0
O=C(O)c1cc(=O)c2c(OCC(O)COc3cccc4oc(C(=O)O)cc(=O)c34)cccc2o1,neuronal differentiation score,ReNCell VM [1]; library: Spectrum,inactive: 0
same,dopaminergic neuron differentiation score,ReNCell VM [2]; library: Spectrum,inactive: 0
CC(S)C(=O)NCC(=O)O (stereo not given),neuronal differentiation score,ReNCell VM [1]; library: Spectrum,inactive: 0
same,dopaminergic neuron differentiation score,ReNCell VM [2]; library: Spectrum,inactive: 0
C[C@]12CCC(=O)C=C1CC[C@@H]1[C@@H]2[C@@H](O)C[C@@]2(C)[C@H]1CC[C@]2(O)C(=O)CO,neuronal differentiation score,ReNCell VM [1]; library: Spectrum,inactive: 0
same,dopaminergic neuron differentiation score,ReNCell VM [2]; library: Spectrum,inactive: 0
COc1ccc(-n2[nH]c3c4c(ncc3c2=O)CCCCC4)cc1,neuronal differentiation score,ReNCell VM [1]; library: Tocriscreen,inactive: 0
same,dopaminergic neuron differentiation score,ReNCell VM [2]; library: Tocriscreen,inactive: 0
CC1(C)CC[C@]2(C(=O)O)CC[C@]3(C)C(=CC[C@@H]4[C@@]5(C)CC[C@H](O)C(C)(C)[C@@H]5[C@H](O)C[C@]43C)[C@@H]2C1 [sumaresinolic acid],neuronal differentiation score,ReNCell VM [1]; library: Natural,inactive: 0
same,dopaminergic neuron differentiation score,ReNCell VM [2]; library: Natural,inactive: 0
O=c1oc(-c2ccc(C(F)(F)F)cc2)nn1Cc1cc(Cl)ccc1O,neuronal differentiation score,ReNCell VM [1]; library: Tocriscreen,inactive: 0
same,dopaminergic neuron differentiation score,ReNCell VM [2]; library: Tocriscreen,inactive: 0
CN(C)CCN(Cc1ccc(Cl)cc1)c1ccccn1 [Chloropyramine hydrochloride],neuronal differentiation score,ReNCell VM [1]; library: Prestwick,inactive: 0
same,dopaminergic neuron differentiation score,ReNCell VM [2]; library: Prestwick,inactive: 0
CC[C@]1(O)C[C@@H]2CN(CCc3c([nH]c4ccccc34)[C@@](C(=O)OC)(c3cc4c(cc3OC)N(C)[C@H]3[C@@](O)(C(=O)OC)[C@H](OC(C)=O)[C@]5(CC)C=CCN6CC[C@]43[C@@H]65)C2)C1 [Vinblastine sulfate salt],neuronal differentiation score,ReNCell VM [1]; library: LOPAC,inactive: 0
same,dopaminergic neuron differentiation score,ReNCell VM [2]; library: LOPAC,inactive: 0
CN(C)CCCN1c2ccccc2CCc2ccccc21,neuronal differentiation score,ReNCell VM [1]; library: Spectrum,inactive: -1
same,dopaminergic neuron differentiation score,ReNCell VM [2]; library: Spectrum,inactive: 0
O=C(c1cc(O)c(O)c([N+](=O)[O-])c1)c1ccccc1F,neuronal differentiation score,ReNCell VM [1]; library: LOPAC,inactive: 0
same,dopaminergic neuron differentiation score,ReNCell VM [2]; library: LOPAC,inactive: 0
CCCNC(=O)NS(=O)(=O)c1ccc(Cl)cc1,neuronal differentiation score,ReNCell VM [1]; library: Spectrum,inactive: 0
same,dopaminergic neuron differentiation score,ReNCell VM [2]; library: Spectrum,inactive: 0
N#Cc1ccccc1OCC(O)CNCCNC(=O)Nc1ccccc1 (stereo not given),neuronal differentiation score,ReNCell VM [1]; library: Tocriscreen,inactive: 0
same,dopaminergic neuron differentiation score,ReNCell VM [2]; library: Tocriscreen,inactive: 0
CC(=O)[C@H]1CC[C@H]2[C@@H]3CC=C4C[C@@H](O)CC[C@]4(C)[C@H]3CC[C@]12C [Pregnenolone],neuronal differentiation score,ReNCell VM [1]; library: Prestwick,inactive: 0
same,dopaminergic neuron differentiation score,ReNCell VM [2]; library: Prestwick,inactive: 0
Oc1ccccc1O [Pyrocatechol],neuronal differentiation score,ReNCell VM [1]; library: LOPAC,active: 3
same,dopaminergic neuron differentiation score,ReNCell VM [2]; library: LOPAC,inactive: 0
O=C1c2ccccc2C(=O)c2c(O)c(O)cc(O)c21,neuronal differentiation score,ReNCell VM [1]; library: Spectrum,inactive: 0
same,dopaminergic neuron differentiation score,ReNCell VM [2]; library: Spectrum,active: 3
CCCCc1nc(Cl)c(CO)n1Cc1ccc(-c2ccccc2-c2nnn[nH]2)cc1 [Losartan],neuronal differentiation score,ReNCell VM [1]; library: Prestwick,inactive: 0
same,dopaminergic neuron differentiation score,ReNCell VM [2]; library: Prestwick,inactive: 0
Clc1ccc2nsnc2c1NC1=NCCN1 [Tizanidine hydrochloride],neuronal differentiation score,ReNCell VM [1]; library: Tocriscreen,inactive: 0
same,dopaminergic neuron differentiation score,ReNCell VM [2]; library: Tocriscreen,inactive: 0
CC(=O)N(CC(C)C(=O)O)c1c(I)cc(I)c(N)c1I (stereo not given) [Iocetamic acid],neuronal differentiation score,ReNCell VM [1]; library: Prestwick,inactive: 0
same,dopaminergic neuron differentiation score,ReNCell VM [2]; library: Prestwick,inactive: 0
CC[C@@]1(O)C(=O)OCc2c1cc1n(c2=O)Cc2cc3c(CN(C)C)c(O)ccc3nc2-1,neuronal differentiation score,ReNCell VM [1]; library: Spectrum,inactive: 0
same,dopaminergic neuron differentiation score,ReNCell VM [2]; library: Spectrum,inactive: 0
C[C@@H]1CC2C3C[C@H](F)C4=CC(=O)C=C[C@]4(C)[C@@]3(F)[C@@H](O)C[C@]2(C)[C@@]1(O)C(=O)COC(=O)C(C)(C)C (stereo not given in full),neuronal differentiation score,ReNCell VM [1]; library: Spectrum,inactive: 0
same,dopaminergic neuron differentiation score,ReNCell VM [2]; library: Spectrum,inactive: 1
Cc1csc(-c2coc3cc(O[C@@H]4O[C@H](CO)[C@@H](O)[C@@H](O)[C@H]4O)ccc3c2=O)n1,neuronal differentiation score,ReNCell VM [1]; library: Natural,inactive: 0
same,dopaminergic neuron differentiation score,ReNCell VM [2]; library: Natural,inactive: 0
CCOC(=O)Nc1ccc(NCc2ccc(F)cc2)nc1N [Flupirtine maleate],neuronal differentiation score,ReNCell VM [1]; library: LOPAC,inactive: 0
same,dopaminergic neuron differentiation score,ReNCell VM [2]; library: LOPAC,inactive: 0

# 2 entries drawn at random from those above:
compound,measurement,setting,value
CC1(C)CC[C@]2(C(=O)O)CC[C@]3(C)C(=CC[C@@H]4[C@@]5(C)CC[C@H](O)C(C)(C)[C@@H]5[C@H](O)C[C@]43C)[C@@H]2C1 [sumaresinolic acid],dopaminergic neuron differentiation score,ReNCell VM [2]; library: Natural,inactive: 0
O=c1oc(-c2ccc(C(F)(F)F)cc2)nn1Cc1cc(Cl)ccc1O,dopaminergic neuron differentiation score,ReNCell VM [2]; library: Tocriscreen,inactive: 0
